{"source": "PubChem BioAssay AID652272 (Drosophila RNAi Screening Center, 2013)", "test": "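Finding fly genes that regulate Hedgehog signal transduction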 (primary screen)", "system": "Drosophila clone 8 (Cl8) cells", "reagents": "long dsRNA against Drosophila genes", "measured": "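Plate reader light from a firefly reporter under a ptc promoter fragment that responds to Hedgehog, with Renilla light as transfection reference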", "direction": "firefly Hh reporter signal: higher = more ptc reporter light; Renilla reference signal: higher = more Renilla control light", "active means": "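Hit when the z-score averaged over two replicates is under -2 or over +3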", "meaning of the calls": "active = hit: reporter lowered or raised; inactive = not a hit", "note": "The screen tested about 21,000 reagents; below is a random part of those that have a named target and a result. Of all reagents, 503 (2.4%) are marked active. 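Raw plate light values, not normalised; calls rest on replicate z-scores that were not deposited; hits include reporter decreases as well as increases.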 A plus sign joins genes that one reagent is predicted to hit. Reagent sequences are not shown. The record does not give: the amount of reagent, the time to read-out."}
{"gene":"wa-cup (walker cup)","firefly Hh reporter signal, replicate 1":69393,"firefly Hh reporter signal, replicate 2":1.01e5,"Renilla reference signal, replicate 1":2136,"Renilla reference signal, replicate 2":2884,"call":"inactive"}
{"gene":"CG43146 (retired record)","firefly Hh reporter signal, replicate 1":2.75e5,"Renilla reference signal, replicate 1":6477,"call":"inactive"}
{"gene":"key (kenny)","firefly Hh reporter signal, replicate 1":1.32e5,"firefly Hh reporter signal, replicate 2":1.03e5,"Renilla reference signal, replicate 1":4996,"Renilla reference signal, replicate 2":2381,"call":"inactive"}
{"gene":"DnaJ-H (DnaJ homolog)","firefly Hh reporter signal, replicate 1":1.24e5,"firefly Hh reporter signal, replicate 2":54438,"Renilla reference signal, replicate 1":3235,"Renilla reference signal, replicate 2":5293,"call":"inactive"}
{"gene":"CG8389","firefly Hh reporter signal, replicate 1":1.41e5,"firefly Hh reporter signal, replicate 2":1.21e5,"Renilla reference signal, replicate 1":5884,"Renilla reference signal, replicate 2":4923,"call":"inactive"}
{"gene":"CG11997","firefly Hh reporter signal, replicate 1":71842,"firefly Hh reporter signal, replicate 2":1.02e5,"Renilla reference signal, replicate 1":2691,"Renilla reference signal, replicate 2":2994,"call":"inactive"}
{"gene":"unc-119","firefly Hh reporter signal, replicate 1":87074,"firefly Hh reporter signal, replicate 2":2.02e5,"Renilla reference signal, replicate 1":2893,"Renilla reference signal, replicate 2":7360,"call":"inactive"}
{"gene":"Bruce (BIR repeat containing ubiquitin-conjugating enzyme)","firefly Hh reporter signal, replicate 1":68167,"firefly Hh reporter signal, replicate 2":1.36e5,"Renilla reference signal, replicate 1":2247,"Renilla reference signal, replicate 2":3852,"call":"inactive"}
{"gene":"Dtwd2 + Obp84a","firefly Hh reporter signal, replicate 1":95769,"firefly Hh reporter signal, replicate 2":1.38e5,"Renilla reference signal, replicate 1":4251,"Renilla reference signal, replicate 2":3860,"call":"inactive"}
{"gene":"Fnta (Farnesyl transferase alpha subunit)","firefly Hh reporter signal, replicate 1":70825,"firefly Hh reporter signal, replicate 2":45714,"Renilla reference signal, replicate 1":2537,"Renilla reference signal, replicate 2":2055,"call":"inactive"}
{"gene":"TH1","firefly Hh reporter signal, replicate 1":53190,"firefly Hh reporter signal, replicate 2":44773,"Renilla reference signal, replicate 1":1220,"Renilla reference signal, replicate 2":717,"call":"inactive"}
{"gene":"CG17193","firefly Hh reporter signal, replicate 1":6.22e5,"firefly Hh reporter signal, replicate 2":93760,"Renilla reference signal, replicate 1":30597,"Renilla reference signal, replicate 2":2821,"call":"inactive"}
{"gene":"CG11584","firefly Hh reporter signal, replicate 1":1.11e5,"firefly Hh reporter signal, replicate 2":3.03e5,"Renilla reference signal, replicate 1":1996,"Renilla reference signal, replicate 2":12800,"call":"inactive"}
{"gene":"CG5539","firefly Hh reporter signal, replicate 1":67666,"firefly Hh reporter signal, replicate 2":51084,"Renilla reference signal, replicate 1":1888,"Renilla reference signal, replicate 2":4464,"call":"inactive"}
{"gene":"CG43336","firefly Hh reporter signal, replicate 1":1.44e5,"firefly Hh reporter signal, replicate 2":1.18e5,"Renilla reference signal, replicate 1":4738,"Renilla reference signal, replicate 2":3117,"call":"inactive"}
{"gene":"Arl4 (ADP ribosylation factor-like 4)","firefly Hh reporter signal, replicate 1":92731,"firefly Hh reporter signal, replicate 2":2.54e5,"Renilla reference signal, replicate 1":3411,"Renilla reference signal, replicate 2":9803,"call":"inactive"}
{"gene":"Pex1 (Peroxin 1)","firefly Hh reporter signal, replicate 1":1.03e5,"firefly Hh reporter signal, replicate 2":47267,"Renilla reference signal, replicate 1":3856,"Renilla reference signal, replicate 2":2144,"call":"inactive"}
{"gene":"Dhps (Deoxyhypusine synthase)","firefly Hh reporter signal, replicate 1":51872,"firefly Hh reporter signal, replicate 2":74661,"Renilla reference signal, replicate 1":598,"Renilla reference signal, replicate 2":4938,"call":"inactive"}
{"gene":"RpLP2 (Ribosomal protein LP2)","firefly Hh reporter signal, replicate 1":26288,"firefly Hh reporter signal, replicate 2":13739,"Renilla reference signal, replicate 1":1075,"Renilla reference signal, replicate 2":2049,"call":"active"}
{"gene":"Lip3 (Lipase 3)","firefly Hh reporter signal, replicate 1":1.58e5,"firefly Hh reporter signal, replicate 2":1.22e5,"Renilla reference signal, replicate 1":4659,"Renilla reference signal, replicate 2":3200,"call":"inactive"}
{"gene":"MED25 (Mediator complex subunit 25)","firefly Hh reporter signal, replicate 1":39398,"firefly Hh reporter signal, replicate 2":25644,"Renilla reference signal, replicate 1":2592,"Renilla reference signal, replicate 2":1456,"call":"active"}

2 neighbouring reagents from above, for reference:
{"gene":"CG5539","firefly Hh reporter signal, replicate 1":67666,"firefly Hh reporter signal, replicate 2":51084,"Renilla reference signal, replicate 1":1888,"Renilla reference signal, replicate 2":4464,"call":"inactive"}
{"gene":"CG43336","firefly Hh reporter signal, replicate 1":1.44e5,"firefly Hh reporter signal, replicate 2":1.18e5,"Renilla reference signal, replicate 1":4738,"Renilla reference signal, replicate 2":3117,"call":"inactive"}
